Measurements reported in PubChem BioAssay AID1224829 (NIAID, 2016).
Purpose: 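Secondary check of hits that alter LPS-induced p65 translocation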 (follow-up of hits). Cells: mouse RAW264.7 G9 macrophage reporter cells. Knock-down reagent: single siRNA against mouse genes, 100 nM. Time to read-out: 2 days of siRNA knock-down, then 40 min of LPS before fixing. Treatment: LPS (Salmonella minnesota R595) at 10 ng/ml. Measurement: 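High-content images after 40 min LPS exposure; GFP-p65 nucleus to surrounding ring signal ratio, normalised to plate median and non-targeting control wells, expressed as z-score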. Reading the numbers: p65 translocation z-score and gene median z-score, per vendor: higher = more nuclear NF-kappaB p65 after LPS. Active means: 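An siRNA is called active when the mean z-score of its two replicates is above 2 or below -2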. Calls: active = changed p65 translocation (either direction); inactive = no clear change.
This is an unselected part of about 3,800 reagents. 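Calls cover raised and lowered translocation; gene median uses one vendor's three siRNAs; qiagen siRNAs acted more weakly than ambion siRNAs.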 No sequences are given here.

| target gene | PubChem SID | siRNA vendor or control pool | p65 translocation z-score, replicate mean | p65 translocation z-score, replicate 1 | p65 translocation z-score, replicate 2 | gene median z-score, per vendor | outcome |
| --- | --- | --- | --- | --- | --- | --- | --- |
| Krr1 (KRR1 small subunit processome component) | SID315485625 | ambion single siRNA | -7.09 | -7.28 | -6.9 | -5.5 | active |
| Krr1 (KRR1 small subunit processome component) | SID315485626 | ambion single siRNA | -5.45 | -5.5 | -5.41 | -5.5 | active |
| Krr1 (KRR1 small subunit processome component) | SID315485627 | ambion single siRNA | -1.72 | -1.72 | – | -5.5 | inactive |
| Krr1 (KRR1 small subunit processome component) | SID315485628 | qiagen single siRNA | -0.352 | -2.18 | 1.47 | 0.396 | inactive |
| Krr1 (KRR1 small subunit processome component) | SID315485629 | qiagen single siRNA | -1.31 | -1.93 | -0.682 | 0.396 | inactive |
| Krr1 (KRR1 small subunit processome component) | SID315485630 | qiagen single siRNA | 4.88 | 3.54 | 6.22 | 0.396 | active |
| Rps3 (ribosomal protein S3) | SID315485325 | ambion single siRNA | 0.202 | 0.955 | -0.551 | -2.18 | inactive |
| Rps3 (ribosomal protein S3) | SID315485326 | ambion single siRNA | -2.53 | -1.91 | -3.14 | -2.18 | active |
| Rps3 (ribosomal protein S3) | SID315485327 | ambion single siRNA | -2.73 | -2.44 | -3.01 | -2.18 | active |
| Rps3 (ribosomal protein S3) | SID315485328 | qiagen single siRNA | 0.67 | 1.26 | 0.0832 | 0.567 | inactive |
| Rps3 (ribosomal protein S3) | SID315485329 | qiagen single siRNA | 1.93 | 1.05 | 2.81 | 0.567 | inactive |
| Rps3 (ribosomal protein S3) | SID315485330 | qiagen single siRNA | -0.982 | -1.07 | -0.897 | 0.567 | inactive |
| Rpl13a (ribosomal protein L13A) | SID315485052 | ambion single siRNA | -1.89 | -2.4 | -1.38 | -1.4 | inactive |
| Rpl13a (ribosomal protein L13A) | SID315485053 | ambion single siRNA | -1.25 | -1.41 | -1.09 | -1.4 | inactive |
| Rpl13a (ribosomal protein L13A) | SID315485054 | ambion single siRNA | -1.9 | 0.39 | -4.2 | -1.4 | inactive |
| Rpl13a (ribosomal protein L13A) | SID315485055 | qiagen single siRNA | -5.31 | -5.31 | – | -3.8 | active |
| Rpl13a (ribosomal protein L13A) | SID315485056 | qiagen single siRNA | -2.63 | -1.45 | -3.8 | -3.8 | active |
| Rpl13a (ribosomal protein L13A) | SID315485057 | qiagen single siRNA | -2.98 | -0.967 | -4.99 | -3.8 | active |
| Add2 (adducin 2) | SID315483672 | ambion single siRNA | 1.04 | 1.19 | 0.886 | 0.554 | inactive |
| Add2 (adducin 2) | SID315483673 | ambion single siRNA | 0.554 | 0.874 | 0.234 | 0.554 | inactive |
| Add2 (adducin 2) | SID315483674 | ambion single siRNA | -1.16 | -1.02 | -1.29 | 0.554 | inactive |
| Add2 (adducin 2) | SID315483675 | qiagen single siRNA | 1.41 | 0.86 | 1.97 | 0.321 | inactive |
| Add2 (adducin 2) | SID315483676 | qiagen single siRNA | -0.218 | -0.218 | – | 0.321 | inactive |
| Add2 (adducin 2) | SID315483677 | qiagen single siRNA | -3.83 | -3.83 | – | 0.321 | active |
| 6030452D12Rik (RIKEN cDNA 6030452D12 gene) | SID315489009 | ambion single siRNA | -0.151 | -0.355 | 0.0521 | -1.68 | inactive |
| 6030452D12Rik (RIKEN cDNA 6030452D12 gene) | SID315489010 | ambion single siRNA | -3.75 | -4.88 | -2.61 | -1.68 | active |
| 6030452D12Rik (RIKEN cDNA 6030452D12 gene) | SID315489011 | ambion single siRNA | -2.22 | -0.741 | -3.71 | -1.68 | active |
| 6030452D12Rik (RIKEN cDNA 6030452D12 gene) | SID315489012 | qiagen single siRNA | 3.18 | 3.11 | 3.26 | 3.11 | active |
| 6030452D12Rik (RIKEN cDNA 6030452D12 gene) | SID315489013 | qiagen single siRNA | 3.28 | 2.06 | 4.51 | 3.11 | active |
| 6030452D12Rik (RIKEN cDNA 6030452D12 gene) | SID315489014 | qiagen single siRNA | 2.13 | 2.13 | – | 3.11 | active |
| Polr2d (polymerase (RNA) II (DNA directed) polypeptide D) | SID315486582 | ambion single siRNA | 0.304 | 1.9 | -1.29 | -5.53 | inactive |
| Polr2d (polymerase (RNA) II (DNA directed) polypeptide D) | SID315486583 | ambion single siRNA | -9.32 | -9.65 | -8.99 | -5.53 | active |
| Polr2d (polymerase (RNA) II (DNA directed) polypeptide D) | SID315486584 | ambion single siRNA | -5.53 | -5.25 | -5.82 | -5.53 | active |
| Polr2d (polymerase (RNA) II (DNA directed) polypeptide D) | SID315486585 | qiagen single siRNA | -1.67 | -0.191 | -3.15 | -2.31 | inactive |
| Polr2d (polymerase (RNA) II (DNA directed) polypeptide D) | SID315486586 | qiagen single siRNA | -1.43 | -0.554 | -2.31 | -2.31 | inactive |
| Polr2d (polymerase (RNA) II (DNA directed) polypeptide D) | SID315486587 | qiagen single siRNA | -6.28 | -6.28 | – | -2.31 | active |
| Hc (hemolytic complement) | SID315484281 | ambion single siRNA | -1.18 | -1.94 | -0.434 | -0.809 | inactive |
| Hc (hemolytic complement) | SID315484282 | ambion single siRNA | 0.00757 | 0.459 | -0.444 | -0.809 | inactive |
| Hc (hemolytic complement) | SID315484283 | ambion single siRNA | -1.29 | -1.4 | -1.17 | -0.809 | inactive |
| Hc (hemolytic complement) | SID315484284 | qiagen single siRNA | 0.309 | 0.0932 | 0.525 | -0.54 | inactive |
| Hc (hemolytic complement) | SID315484285 | qiagen single siRNA | -1.33 | -2.13 | -0.54 | -0.54 | inactive |
| Hc (hemolytic complement) | SID315484286 | qiagen single siRNA | -3.28 | -3.28 | – | -0.54 | active |

In a second layout: entries from further up.
Polr2d (polymerase (RNA) II (DNA directed) polypeptide D) [SID315486587], siRNA vendor or control pool qiagen single siRNA
- p65 translocation z-score, replicate mean: -6.28
- p65 translocation z-score, replicate 1: -6.28
- gene median z-score, per vendor: -2.31
- outcome: active

Hc (hemolytic complement) [SID315484281], siRNA vendor or control pool ambion single siRNA
- p65 translocation z-score, replicate mean: -1.18
- p65 translocation z-score, replicate 1: -1.94
- p65 translocation z-score, replicate 2: -0.434
- gene median z-score, per vendor: -0.809
- outcome: inactive

Hc (hemolytic complement) [SID315484282], siRNA vendor or control pool ambion single siRNA
- p65 translocation z-score, replicate mean: 0.00757
- p65 translocation z-score, replicate 1: 0.459
- p65 translocation z-score, replicate 2: -0.444
- gene median z-score, per vendor: -0.809
- outcome: inactive

Hc (hemolytic complement) [SID315484283], siRNA vendor or control pool ambion single siRNA
- p65 translocation z-score, replicate mean: -1.29
- p65 translocation z-score, replicate 1: -1.4
- p65 translocation z-score, replicate 2: -1.17
- gene median z-score, per vendor: -0.809
- outcome: inactive

Hc (hemolytic complement) [SID315484284], siRNA vendor or control pool qiagen single siRNA
- p65 translocation z-score, replicate mean: 0.309
- p65 translocation z-score, replicate 1: 0.0932
- p65 translocation z-score, replicate 2: 0.525
- gene median z-score, per vendor: -0.54
- outcome: inactive

Hc (hemolytic complement) [SID315484285], siRNA vendor or control pool qiagen single siRNA
- p65 translocation z-score, replicate mean: -1.33
- p65 translocation z-score, replicate 1: -2.13
- p65 translocation z-score, replicate 2: -0.54
- gene median z-score, per vendor: -0.54
- outcome: inactive

Hc (hemolytic complement) [SID315484286], siRNA vendor or control pool qiagen single siRNA
- p65 translocation z-score, replicate mean: -3.28
- p65 translocation z-score, replicate 1: -3.28
- gene median z-score, per vendor: -0.54
- outcome: active

Continued:
| target gene | PubChem SID | siRNA vendor or control pool | p65 translocation z-score, replicate mean | p65 translocation z-score, replicate 1 | p65 translocation z-score, replicate 2 | gene median z-score, per vendor | outcome |
| --- | --- | --- | --- | --- | --- | --- | --- |
| Syngr1 (synaptogyrin 1) | SID315484956 | ambion single siRNA | -3.1 | -3.59 | -2.6 | -0.61 | active |
| Syngr1 (synaptogyrin 1) | SID315484957 | ambion single siRNA | -0.402 | -1.32 | 0.515 | -0.61 | inactive |
| Syngr1 (synaptogyrin 1) | SID315484958 | ambion single siRNA | 1.2 | 2.3 | 0.0994 | -0.61 | inactive |
| Syngr1 (synaptogyrin 1) | SID315484959 | qiagen single siRNA | 1.87 | 2.57 | 1.17 | 0.546 | inactive |
| Syngr1 (synaptogyrin 1) | SID315484960 | qiagen single siRNA | 0.567 | -0.0738 | 1.21 | 0.546 | inactive |
| Syngr1 (synaptogyrin 1) | SID315484961 | qiagen single siRNA | -0.75 | -1.2 | -0.304 | 0.546 | inactive |
| Cd209c (CD209c antigen) | SID315487962 | ambion single siRNA | 0.183 | 0.582 | -0.216 | -1.02 | inactive |
| Cd209c (CD209c antigen) | SID315487963 | ambion single siRNA | -3.63 | -3.15 | -4.11 | -1.02 | active |
| Cd209c (CD209c antigen) | SID315487964 | ambion single siRNA | -0.238 | 1.34 | -1.81 | -1.02 | inactive |
| Cd209c (CD209c antigen) | SID315487965 | qiagen single siRNA | -0.638 | 0.154 | -1.43 | -0.435 | inactive |
| Cd209c (CD209c antigen) | SID315487966 | qiagen single siRNA | -0.0168 | -0.265 | 0.232 | -0.435 | inactive |
| Cd209c (CD209c antigen) | SID315487967 | qiagen single siRNA | -0.811 | -1.02 | -0.606 | -0.435 | inactive |
| Cat (catalase) | SID315483879 | ambion single siRNA | -3.09 | -2.59 | -3.58 | -2.59 | active |
| Cat (catalase) | SID315483880 | ambion single siRNA | -2.21 | -2.86 | -1.57 | -2.59 | active |
| Cat (catalase) | SID315483881 | ambion single siRNA | -1.65 | -1.65 | – | -2.59 | inactive |
| Cat (catalase) | SID315483882 | qiagen single siRNA | 0.652 | 0.652 | – | 1.03 | inactive |
| Cat (catalase) | SID315483883 | qiagen single siRNA | 1.55 | 1.03 | 2.08 | 1.03 | inactive |
| Cat (catalase) | SID315483884 | qiagen single siRNA | 0.723 | 0.264 | 1.18 | 1.03 | inactive |
| Aqp7 (aquaporin 7) | SID315483765 | ambion single siRNA | -1 | -1.2 | -0.807 | -1.01 | inactive |
| Aqp7 (aquaporin 7) | SID315483766 | ambion single siRNA | -1.79 | -0.632 | -2.94 | -1.01 | inactive |
| Aqp7 (aquaporin 7) | SID315483767 | ambion single siRNA | -1.22 | -1.62 | -0.811 | -1.01 | inactive |
| Aqp7 (aquaporin 7) | SID315483768 | qiagen single siRNA | 0.508 | 0.257 | 0.758 | -1.83 | inactive |
| Aqp7 (aquaporin 7) | SID315483769 | qiagen single siRNA | -1.83 | -1.8 | -1.87 | -1.83 | inactive |
| Aqp7 (aquaporin 7) | SID315483770 | qiagen single siRNA | -3.37 | -3.82 | -2.93 | -1.83 | active |
